According to PMC9642905:
Results are given in words; binding and its absence hold for the method and conditions named. Some entries that bind do so weakly or less than the wild type.

Biological target: T1, RME-8 aa1322-1388 (DNAJ) fragment, wild-type, two-hybrid bait (Fig 4F) (C. elegans) (UniProt G5ED36)
T1 sequence: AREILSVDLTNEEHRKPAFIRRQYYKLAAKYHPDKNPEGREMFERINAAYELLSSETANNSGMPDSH
Assay: two-hybrid; wild-type or mutant DNAJ domain (1322-1388) as bait, RME-8(1388-2279) as prey; spotted on SC-LEU-TRP growth or SC-LEU-TRP-URA assay media

binding: binds
B1: RME-8(1388-2279), two-hybrid prey (Fig 4F) (domain or fragment, UniProt G5ED36 1388-2279)
chain: HRIVLCLQAQSIIYSRYSQELSEYKYAGYSQLIKTIDLEAKDEALFIKGGGDLLSAAIELANYTLISSALNAEQLRRDNGLEALVTAFDRCVPMVTMSSLPDDMAVRVCIHVCDCFATAATFEACRQRLMEMPSIFGALTRLLQFSNLPRLSTAAAQCIRAMAVDTLLQFQLFQTGVLWQLVPHLFHFDYTLDEGGVQHSEDSNKQSLANSLARSSCEALAALAGFRENTPDNDGVQASLRALLTPYICRCMKLETNDMVLKTLNSNMENPYMIWDNGTRAEVLEFVERHRTSNEPTSELYGAEFELSVHKNELIVGDIFIRIYNEQPTFALHEPKKVAIDLLDYIKKHSAELTGAPKPKAISDDLIEIDWGNGSQANGNSLDTETKVLMTMTALANLVSANPGALFANKKGVEILLIGNFPLLITYLRCRKHPKLQIAALQVILLAAANKECVTDLATCNVTTTLFTLLRDQPKMIARVLDVLIALSSNGQIGKEMLEHGGLMYILSILCLTNSDQGQRLQAAELLAKLQADKLTGPRWTRFIIKFLPEIFADSLRDSPNTALQMFDSSSENPELIWNEVTRQKVKGIIDTEVGKLYEQHIKDPTVKWNTTSLADKSCAYGDSINGELVVGGVFVRLYVENPGFNVRHPKLFSTELIEKVLELMSRPTPELDLVTKAFVELVRHHPNTADQLPSQGYLPQFCTAMCLQNTSASRSAILILQELSENQFCCDALSQLPCIDGIMKSMKNQPSLMRESAHALKCLMKRNTGELAQQMLSCGMVPYLLQVLDSSMNGVSNGAAARAEIVDALKSAILDLKVGQKIAEILDKSPVWAQFKDQRHDLFLPEARTQAITGGPTGVAGYLTEGMFNPPPMSNQPPPMHQTSGDFQPPL
